From patent US6656968B1, “(Z)-styryl acetoxyphenyl sulfides as cyclooxygenase inhibitors” (Temple University - Of the Commonwealth System of Higher …, priority 1999, dated 2003)
For at least one compound, name, drawing or mass did not settle the structure.

Experiments:
HT29 cells = test: Soft agar assay, HT29 cells; assay type: cell-based, human; settings: HT29 in soft agar, even at 50 μM, nitroblue tetrazolium stain
Description: (§1) Z-styryl 2-acetoxyphenylsulfide (Example 1) was compared to the COX-2 inhibitor celecoxib in inhibiting the growth of HT29 cells in soft agar. HT29 cells are human colorectal carcinoma cells that overexpress COX-2. HT29 cells grow in soft agar and form tumors in nude mice. The soft agar assay was performed as follows. A layer of bottom agar ([…]) was placed onto 60 mm^2 tissue culture dishes. The tumor cells were trypsinized from normal growth flasks while in exponential growth. The cells were counted by using a hemacytometer and 1.0×10^5 cells were placed into the top agar mixture containing growth medium, […] and various concentrations of drugs. The concentration range was normally between 10 μM to 75 μM. The cells were not refed during the assay system; therefore, the cells were treated with one dose of the agents. The plates were stained 20 days later with a 0.05% (w/v) nitroblue tetrazolium solution (which stains only viable cells) for 48 hours. […] The same concentration of Z-styryl 2-acetoxyphenylsulfide had little affect on the growth of monolayer cells.

DLD-1 cells = test: Soft agar assay, DLD-1 cells; assay type: cell-based, human; settings: DLD-1 in soft agar, highest concentration tested, versus untreated control cells (FIG. 1)
Description: as §1
The same assay was carried out with DLD-1 cells. Like HT29, DLD-1 cells are human colorectal carcinoma cells that overexpress COX-2. They grow in soft agar and form tumors in nude mice. The results are shown in FIG. 1, the y-axis being the percent of cell colonies remaining in comparison to untreated control cells.

Cc1ccc(-c2cc(C(F)(F)F)nn2-c2ccc(S(N)(=O)=O)cc2)cc1 [celecoxib, reference compound]
viable (staining) cells on soft agar plates (HT29 cells): many viable cells that never formed colonies | inhibition of cell colony growth (DLD-1 cells): partial inhibition
